Experimental data: publication PMC12040169 (PLOS Biology, 2025)
Some of the results follow.

Test system: T1, CTL2-GFP (C. trachomatis L2/434/Bu, GFP-expressing)
T1 construct: L2/434/Bu, GFP-expressing
Set-up: species or system HeLa; Intracellular C. trachomatis growth in HeLa cells, bulk GFP fluorescence relative to DMSO
Conditions: bulk GFP, single well; 28.5 h, 10 µM; inhibitor

| SMILES | % of control remaining [%] |
| --- | --- |
| COc1ccc(-c2cc(C(=O)NCc3nc4ccccc4[nH]3)cnc2-c2ccccc2)cn1 [CBK037579] | 240.872 |
| CCN(CC)C(=O)C1CCCN(C(=O)c2ccc3c(c2)COC(C2CCN(C(=O)OC(C)(C)C)CC2)O3)C1 (stereo not shown) [CBK173279] | 109.368 |
| CCc1ccc(NC(=O)CNc2cc(C)ccc2OC)cc1 [CBK297553] | 116.73 |
| COc1ccc(C=Cc2cc(C(=O)O)c3ccccc3n2)cc1OC(F)F [CBK296953] | 130.68 |
| O=C1N[C@@H]2CCN(S(=O)(=O)c3cccs3)[C@@H]2C(=O)N1c1ccc(F)cc1 [CBK289326] | 143.579 |
| COc1ccc(CN(C)CCN(C)C)c(O)c1 [CBK261915] | 90.7239 |
| N=C(N)SCc1ncccc1O [CBK278318C] | 101.88 |
| Cc1ccc(Cn2nc(C)c(NC(=O)c3nc4ncccn4n3)c2C)cc1 [CBK268912] | 114.075 |
| O=C(Nc1ccc(N2CCNCC2)c2ccccc12)c1coc2c1C(=O)CCC2 [CBK038946T] | 72.8149 |
| Nc1nonc1C(=O)NCCNCc1cccs1 [CBK267305] | 155.99 |
| Brc1ccc(CN2CCN3CCCC3C2C2CCCCC2)o1 (stereo not shown) [CBK021456] | 106.428 |
| CCOC(=O)NC(=O)N1CCC(N2C(=O)OCC2(C)C)CC1 [CBK044179] | 59.1325 |
| C/C(=N/NC(=O)CSc1nc2ccccc2n1C)c1cccc([N+](=O)[O-])c1 [CBK263179] | 113.766 |
| COc1ccccc1NC(=O)C(=O)NCCc1c[nH]c2ccccc12 [CBK266672] | 101.011 |
| c1cn2cc(-c3ccc(N4CCOCC4)cc3)nc(NCC3CCOCC3)c2n1 [CBK037308] | 231.685 |
| O=C(CSc1nnc(-c2ccccc2O)n1-c1ccccc1)N1CCc2ccccc21 [CBK268097] | 110.621 |
| O=C(/C=C/c1c(Cl)cccc1Cl)Nc1ccc(S(=O)(=O)Nc2ncccn2)cc1 [CBK265490] | 126.28 |
| CCn1ncc(CN2C3CCC2CC(O)(c2ccccc2F)C3)c1C (stereo not shown) [CBK282663] | 125.675 |
| O=C(OCc1ccccc1)N1CCC(C2OCc3cc(-c4cccc5ncccc45)ccc3O2)CC1 (stereo not shown) [CBK144644] | 81.0076 |
| O=C(O)c1sccc1Oc1ccc(F)cc1[N+](=O)[O-] [CBK066847] | 95.6063 |
| COc1cnc(-c2cc(Cl)cc(Cl)c2)c(NC(C)=O)n1 [CBK145333] | 161.991 |
| CCOc1ccc(-c2nc(CC(=O)O)cs2)cc1 [CBK295300] | 175.143 |
| O=C1N=C(NCC2CCCCC2)SC1CC(=O)N1CCCC(O)C1 (stereo not shown) [CBK067919] | 111.807 |
| CO[C@@H]1CO[C@H]2[C@@H]1OC[C@@H]2NC(=O)Nc1cccc(C(F)(F)F)c1 [CBK289461] | 93.3558 |
| CC(=O)N1CCC[C@H]1Cn1nc(-c2cccs2)ccc1=O [CBK284249] | 134.304 |

| SMILES | % of control remaining [%] |
| --- | --- |
| COc1ccccc1C1(NCc2cnn(C)c2)CCCC1 [CBK282744] | 153.608 |
| O=C(CC(CN1CCCN(c2ncccn2)CC1)C(=O)O)NCc1ccccc1 (stereo not shown) [CBK286856] | 142.447 |
| Cc1ccc(C(=O)C2(O)CCN(CCCC(c3ccc(F)cc3)c3ccc(F)cc3)CC2)cc1 [CBK025221C] | 59.6187 |
| C/C(=N\NC(=O)c1nonc1N)c1ccc(Cl)cc1 [CBK025664] | 120.044 |
| CC1CCN(S(=O)(=O)c2ccc(NC(=O)COc3ccc([N+](=O)[O-])cc3)cc2)CC1 [CBK264994] | 95.0348 |
| COc1ccc(-c2ccccc2)cc1NCc1cc2cc(OC)c(OC)cc2[nH]c1=O [CBK286160] | 108.652 |
| COc1ccccc1NC(=O)Cn1nc(-c2ccc(C)cc2)ccc1=O [CBK269974] | 123.345 |
| CC1CCc2c(C(=O)N3CC(C)OC(C)C3)csc2C1 (stereo not shown) [CBK304442] | 116.41 |
| O=C(CSc1ccc(Cl)cc1)N1CCN(c2ccc([N+](=O)[O-])c(N3CCOCC3)c2)CC1 [CBK269670] | 143.938 |
| O=C(Cc1cccc2ccccc12)Nc1cc(C(=O)O)cc(C(=O)O)c1 [CBK268475] | 133.542 |
| Cc1ccc(/C=C2\SC(=S)N(CCCC(=O)N3CCC(Cc4ccccc4)CC3)C2=O)cc1 [CBK264356] | 122.575 |
| COc1cc([C@@]23CC[C@@H](NC(=O)Nc4cccc(C(F)(F)F)c4F)C[C@@H]2N(C)CC3)ccc1C#N [CBK078562] | 90.3016 |
| CC(=O)N1CCCC(c2cc3cccnc3n2CC(=O)N(C)C)C1 (stereo not shown) [CBK285177] | 139.215 |
| CCOc1ccc(Nc2ncnc3c2cnn3Cc2ccccc2)cc1 [CBK072752] | 107.435 |
| CN1CCC(N2CCN(C(=O)c3cnc(-c4ccccn4)nc3C(F)(F)F)CC2)CC1 [CBK149089] | 105.006 |
| OCCN1CC2(CCN(Cc3ncc[nH]3)CC2)c2ccccc21 [CBK126763] | 130.023 |
| CC(=O)N[C@H]1CO[C@H]2[C@@H]1OC[C@@H]2n1nnnc1-c1ccccc1 [CBK289483] | 118.782 |
| CC(=O)NCCc1nc2ccccc2n1CCOc1ccc(Cl)cc1 [CBK269610] | 79.3571 |
| Cc1ccc(C(=O)N2CN(C(=O)CN(C)CCN(C)C)CC2(C)C)cc1 [CBK091460C] | 120.633 |
| Cc1cc(NS(=O)(=O)c2ccc(NC(=O)CCCOc3ccc(Cl)cc3Cl)cc2)no1 [CBK297145] | 39.2974 |
| CNC(=O)CC1SC(NC2CC3C=CC2C3)=NC1=O (stereo not shown) [CBK047491] | 127.618 |
| CCOc1ccccc1C(=O)N1CCC(c2cc(C(=O)NC(C)C)c3ccccc3n2)C1 (stereo not shown) [CBK285918] | 122.142 |
| O=C(O)c1cccc(NS(=O)(=O)c2ccc(F)cc2F)c1 [CBK155084] | 141.429 |
| O=C(NCCO)/C(=C\c1ccccc1)NC(=O)c1ccc(I)cc1 [CBK265162] | 135.536 |

Structural class, those above containing a nitro group on carbon

| SMILES | % of control remaining [%] |
| --- | --- |
| C/C(=N/NC(=O)CSc1nc2ccccc2n1C)c1cccc([N+](=O)[O-])c1 [CBK263179] | 113.766 |
| O=C(O)c1sccc1Oc1ccc(F)cc1[N+](=O)[O-] [CBK066847] | 95.6063 |
| CC1CCN(S(=O)(=O)c2ccc(NC(=O)COc3ccc([N+](=O)[O-])cc3)cc2)CC1 [CBK264994] | 95.0348 |
| O=C(CSc1ccc(Cl)cc1)N1CCN(c2ccc([N+](=O)[O-])c(N3CCOCC3)c2)CC1 [CBK269670] | 143.938 |

2 of these compounds in another layout:
SMILES	% of control remaining [%]
CC(=O)N1CCCC(c2cc3cccnc3n2CC(=O)N(C)C)C1 (stereo not shown) [CBK285177]	139.215
CCOc1ccc(Nc2ncnc3c2cnn3Cc2ccccc2)cc1 [CBK072752]	107.435
